The values below come from ChEMBL document CHEMBL6109134, “Discovery of AMG 193, an MTA-Cooperative PRMT5 Inhibitor for the Treatment of MTAP-Deleted Cancers” (J Med Chem, 2025).

The chains behind the UniProt entries cited, without tags or fusion partners.
UniProt P08684, whole entry: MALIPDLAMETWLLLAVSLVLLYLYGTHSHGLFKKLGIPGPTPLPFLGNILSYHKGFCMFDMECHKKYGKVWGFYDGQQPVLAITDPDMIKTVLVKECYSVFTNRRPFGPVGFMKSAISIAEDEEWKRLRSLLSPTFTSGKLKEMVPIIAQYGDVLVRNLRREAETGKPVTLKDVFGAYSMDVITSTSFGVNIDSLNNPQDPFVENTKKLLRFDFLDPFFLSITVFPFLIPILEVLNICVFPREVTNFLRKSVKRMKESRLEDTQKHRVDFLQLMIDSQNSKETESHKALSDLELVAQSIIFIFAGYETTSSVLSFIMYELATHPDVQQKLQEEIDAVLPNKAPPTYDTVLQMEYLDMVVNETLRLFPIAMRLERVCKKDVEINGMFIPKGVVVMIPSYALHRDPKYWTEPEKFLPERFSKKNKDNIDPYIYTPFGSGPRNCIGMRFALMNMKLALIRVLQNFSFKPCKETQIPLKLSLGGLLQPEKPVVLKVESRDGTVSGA
UniProt P11712, whole entry: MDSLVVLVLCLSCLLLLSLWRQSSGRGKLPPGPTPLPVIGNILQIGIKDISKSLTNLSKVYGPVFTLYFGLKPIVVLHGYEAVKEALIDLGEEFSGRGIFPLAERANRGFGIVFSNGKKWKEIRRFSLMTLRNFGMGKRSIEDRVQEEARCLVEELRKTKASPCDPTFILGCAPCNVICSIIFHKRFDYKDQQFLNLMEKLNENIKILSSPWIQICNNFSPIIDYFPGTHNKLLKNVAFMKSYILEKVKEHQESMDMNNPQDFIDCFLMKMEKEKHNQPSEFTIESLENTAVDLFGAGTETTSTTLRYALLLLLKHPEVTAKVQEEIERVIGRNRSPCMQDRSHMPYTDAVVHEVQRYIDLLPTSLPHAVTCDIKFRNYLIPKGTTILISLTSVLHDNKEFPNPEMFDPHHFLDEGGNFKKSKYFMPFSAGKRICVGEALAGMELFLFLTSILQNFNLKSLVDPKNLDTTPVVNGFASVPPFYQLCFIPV

What is called solubility is the concentration that dissolves in the medium under given conditions. Read a low solubility as a poorly soluble substance. A word on the IC50: it is the concentration that gives 50% inhibition. High values mean lower potency, low ones higher potency.

The nature of series [1]: Solubility of compound in PBS buffer at pH 7.4.
Series [2] deals with T1, Cytochrome P450 3A4 (Homo sapiens, UniProt P08684).
Series [3] deals with T1, Cytochrome P450 3A4. The source holds these as a separate data set.
Series [4] has as its target T2, Nuclear receptor subfamily 1 group I member 2 (Homo sapiens, UniProt O75469).
T2 sequence (O75469 whole entry): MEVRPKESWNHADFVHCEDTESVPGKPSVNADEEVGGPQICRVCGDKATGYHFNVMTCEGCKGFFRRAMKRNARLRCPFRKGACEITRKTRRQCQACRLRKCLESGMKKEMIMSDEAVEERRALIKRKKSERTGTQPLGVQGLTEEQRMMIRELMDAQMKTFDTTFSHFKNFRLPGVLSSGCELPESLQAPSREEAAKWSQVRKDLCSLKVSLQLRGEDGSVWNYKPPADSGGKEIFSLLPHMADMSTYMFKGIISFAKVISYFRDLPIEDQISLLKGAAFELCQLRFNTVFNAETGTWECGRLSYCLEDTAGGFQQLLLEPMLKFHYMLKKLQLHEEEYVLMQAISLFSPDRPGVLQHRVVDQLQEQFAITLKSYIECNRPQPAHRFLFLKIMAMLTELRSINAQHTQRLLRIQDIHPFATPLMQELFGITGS
Description: Activation of human PXR in human HepG2 cells co-transfected with CYP3A4-luciferase at 10 uM incubated for 1 day relative to control. The settings on record: hepg2, 24 h.

In a further series the target is Cytochrome P450 2C9 (Homo sapiens, UniProt P11712). Description: Inhibition of CYP2C9 (unknown origin).
The conditions of series [5]: dog, MDCK-MDR1.
In series [6] the target is T1, Cytochrome P450 3A4. The series is described as follows: Inhibition of CYP3A4 (unknown origin).
Series [7] can be described thus: Solubility of compound in Hcl buffer at pH 2.0.
Series [8] in a line: Solubility of compound in SIF at pH 6.8. The settings on record: simulated gi fluid.

Converted amounts (≈) assume the structure as drawn.

For `Cc1cc2cc(C(=O)N(Cc3ccc(C(F)(F)F)cn3)[C@H](C)c3ncccn3)ccc2nc1N`, the solubility in series [1] was 343 µM (≈ 160 µg/mL); in series [7], greater than 500 µM; in [8], greater than 363 µM. The IC50 was greater than 50 µM at Cytochrome P450 3A4 [2], 5.4 µM against Cytochrome P450 3A4 [3], 21 µM against Cytochrome P450 2C9 and 20 µM at Cytochrome P450 3A4 [6]. The molecule further showed an Activity in [4] of 24%. The permeability in series [5] is on record as 19 10^-6 cm/s.
